Source: PubChem BioAssay AID504847 (National Center for Advancing Translational Sciences (NCATS), 2011)
Where “and” joins values, the source holds several entries; their conditions need not be identical. Equal values may be shown once. About 3,700 (0.93%) of roughly 400,000 compounds were called active. The shares of active, inactive and inconclusive entries below differ from those in the screen. The call rests on the fitted dose curve; in most records, active means well fitted inhibition curve with a large enough effect; inconclusive means small, poorly fitted or top-dose-only effect, or another doubt; inactive means no such curve, though single readings can be large or run the other way. Potencies beside an inconclusive call are fits to weak or partial responses and may not hold up.

By UniProt entry, the sequences of proteins in these tests, tags left out. Where a name states a change or a piece, a line headed by the entry shows the natural chain unless it says otherwise.
UniProt P11473: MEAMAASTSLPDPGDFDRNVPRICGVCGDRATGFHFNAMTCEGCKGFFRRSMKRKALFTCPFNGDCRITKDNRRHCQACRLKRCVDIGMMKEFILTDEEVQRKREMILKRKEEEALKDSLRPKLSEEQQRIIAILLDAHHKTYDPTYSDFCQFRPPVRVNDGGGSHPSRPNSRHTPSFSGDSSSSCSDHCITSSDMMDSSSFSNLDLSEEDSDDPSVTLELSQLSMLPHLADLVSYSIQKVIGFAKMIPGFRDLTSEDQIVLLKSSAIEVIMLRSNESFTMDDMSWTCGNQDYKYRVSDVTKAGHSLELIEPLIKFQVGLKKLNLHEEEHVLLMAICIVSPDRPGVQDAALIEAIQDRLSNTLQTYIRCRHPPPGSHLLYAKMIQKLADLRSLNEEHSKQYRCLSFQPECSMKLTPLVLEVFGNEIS

Molecular target: Vitamin D3 receptor (Homo sapiens) (UniProt P11473)
Experiment: Inhibitors of the vitamin D receptor (VDR): qHTS
Details: VDR-SRC2-3 peptide fluorescence polarization, 2 h; max response, negative = inhibition: stronger effect = lower value
In short: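 Fluorescence polarization assay of small-molecule disruption of VDR binding to coregulator peptide SRC2-3. Compounds and controls pin-transferred, then read after 2 h incubation at ambient room temperature.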
On the % scale 0 is the no-effect control and ±100 the full control effect; potency means the concentration at half of the fitted maximal effect.

Max response, negative = inhibition, inactive:
CCOC(=O)c1nc(C)[nH]c1C(=O)OCC 4.94%, CCCCNC(=S)N(CCN(C)C)Cc1cc2cc3c(cc2[nH]c1=O)OCCO3 32.3%, CCCCNc1c(-c2ccc(SC3CCCCC3)c(OC)c2)nc2ccc(C)cn12 -14.7%, CCOc1ccc(S(=O)(=O)N/N=C2/CCCC(=O)C2)cc1 23.3%, O=[N+]([O-])c1ccc(N2CCCC2)cc1NC1CC1 -11.8%, CCc1cccc(C)c1NC(=O)C1CCN(S(=O)(=O)Cc2ccccc2)CC1 14.5%, Cc1ccc(NC(=S)N/N=C/c2ccc([N+](=O)[O-])s2)cc1 -3.73%, O=C(CSc1cccc[n+]1[O-])c1cc2ccccc2o1 -2.82%, COc1ccc(NC(=O)C2CCCN(C(=O)Nc3ccc(F)cc3)C2)cc1OC (stereo unspecified) 18.9%, O=S(=O)(Nc1ccc(-c2ccc3nncn3n2)cc1)c1ccccc1Cl -8.38%, COCCN1C(=O)/C(=C/c2ccc(N3CCCC3)cc2)SC1=S -2.51%, COc1cccc(C(=O)N2CC(=O)Nc3ccc(C)cc3C2c2ccc(F)cc2)c1OC (stereo unspecified) 1.99%

Potency, inconclusive:
COc1ccc(S(=O)(=O)Nc2ccc(-c3ccc4nncn4n3)cc2)c(OC)c1 56.2 µM [inhibitor, single point], CCOC(=O)C1=C(C)N=c2s/c(=C\c3ccc(OCC(=O)O)cc3)c(=O)n2C1c1ccccc1 (stereo unspecified) 89.1 µM [inhibitor, single point], COc1ccccc1NS(=O)(=O)c1cc(NC(=O)C2CCCC2)ccc1N1CCOCC1 100 µM [inhibitor, single point], COc1ccccc1Oc1c(NS(=O)(=O)c2ccc(C(C)(C)C)cc2)nc(-c2ncccn2)nc1OCCO 28.2 µM [inhibitor, partial curve, poor fit], C#CCOc1ccc(C2C(C#N)=C(N)Oc3cc(O)ccc32)cc1 (stereo unspecified) 79.4 µM [inhibitor, partial curve, poor fit], Cc1cc(C)n2nc(SCC(=O)Nc3ccc(F)cc3)nc2n1 56.2 µM [inhibitor, partial curve, poor fit], CC(=O)CC1OC(=O)C(Br)=C1NCc1ccccc1 (stereo unspecified) 50.1 µM [inhibitor, partial curve], COc1cc(C(=S)N2CCOCC2)cc(OC)c1OC 31.6 µM [inhibitor, partial curve, poor fit], CN1c2ccccc2N(C)C1(C)c1ccccc1 7.94 µM [inhibitor, full curve, poor fit], N#Cc1ccc(NC(=O)COC(=O)CCc2ccc(S(=O)(=O)N3CCCCC3)cc2)cc1 100 µM [inhibitor, single point], Cn1c(C(=O)N2CCc3ccccc3C2)cc2oc3ccccc3c21 0.631 µM [inhibitor, full curve, poor fit], O=C(CC(Nc1ccc(F)cc1)C(=O)O)c1ccccc1 (stereo unspecified) 56.2 µM [inhibitor, partial curve, poor fit], CC1CN(c2cc(=O)n(-c3cccc(Br)c3)c(=O)[nH]2)CC(C)O1 (stereo unspecified) 79.4 µM [inhibitor, partial curve, poor fit], COC(=O)c1c(NC(=O)C(C)Oc2ccc(Cl)cc2Cl)sc2c1CCCC2 (stereo unspecified) 79.4 µM [inhibitor, partial curve], O=c1oc(Nc2ccccc2Cl)nc2ccccc12 89.1 µM [inhibitor, partial curve, poor fit], CS/C(=N\S(=O)(=O)c1cccs1)NC(=O)CSc1nc2ccccc2s1 39.8 µM [inhibitor, partial curve, poor fit] and 15.8 µM [inhibitor, full curve, poor fit], CC(C)OC(=O)CSc1nnc(-c2ccc(C(C)(C)C)cc2)n1N 89.1 µM [inhibitor, single point], COc1ccccc1-c1nnc2n1N=C(c1ccc(OC(F)F)c(OCC3CC3)c1)CS2 100 µM [inhibitor, partial curve, poor fit], CCOCCCNC(=O)c1ccc2c(c1)ncn2-c1ccc(C)cc1C 20 µM [inhibitor, partial curve, poor fit], CC(C)(C)c1ccc(OCC(=O)Nc2ccc(C(=O)Nc3ccccc3C(=O)O)cc2)cc1 100 µM [inhibitor, partial curve, poor fit], N#CC1(C#N)C(c2ccccc2)OC23CCCCC2C1(C#N)C(=N)O3 (stereo unspecified) 89.1 µM [inhibitor, single point], NC(=S)NNc1cc(Cl)cc(Cl)c1 89.1 µM [inhibitor, partial curve, poor fit], CN1C(=O)/C(=C/c2ccc(C(=O)Nc3ccc(O)cc3C(=O)O)cc2)SC1=S 89.1 µM [inhibitor, single point], Nc1ccccc1C#CC(=O)c1ccccc1 56.2 µM [inhibitor, partial curve, poor fit], CC/C(O)=C1\C(=O)CCCC1=NCCc1c(C)[nH]c2ccc(C)cc12 15.8 µM [inhibitor, partial curve, poor fit], Cc1ccc(/C=C2\SC(=S)N(CCCC(=O)Nc3ccccc3C(=O)O)C2=O)cc1 63.1 µM [inhibitor, partial curve, poor fit]

Potency, active:
CCOC(=O)C(C)Sc1nc2c(c(=O)[nH]c(=O)n2C)n1Cc1ccc(Cl)cc1 (stereo unspecified) 89.1 µM, c1coc(-c2nc3cc4ccccc4cc3nc2-c2ccco2)c1 22.4 µM, CC(=C\c1ccccc1)/C=C1/SC(=S)N(CCCC(=O)O)C1=O 79.4 µM
